PubChem BioAssay AID1224828, NIAID, 2016

Aim: 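Regulators linking TLR4 signalling to p65 nuclear translocation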 (primary screen)
Cell system: mouse RAW264.7 G9 macrophage reporter cells (GFP-p65, Tnf promoter-mCherry)
Knock-down reagent: siRNA pool against mouse genes, 100 nM
Timing: 2 days siRNA transfection, then 40 min LPS before fixation
Conditions: LPS (Salmonella minnesota R595) at 10 ng/ml
Read-out: 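Imaged p65 nuclear translocation ratio, normalised to the plate median, converted to robust z-scores and averaged across two replicates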
Scale: p65 translocation robust z-score: higher = more nuclear NF-kappaB p65 after LPS than the plate median; nuclear/cytoplasmic p65 ratio: higher = more nuclear NF-kappaB p65
Call rule: 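Active if robust z is above 3.3 (negative regulators) or below -1.56, the Tlr4 control median (positive regulators); activity score 50 or more; control wells not called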
Calls: active = hit (p65 shift raised or lowered); inactive = no clear change
The whole screen tested about 17,000 reagents; below is a part drawn at random. 762 of all reagents (4.5%) were called active. 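Active calls include both raised and lowered p65 entry, mostly lowered; wells with fewer than 50 cells lack a z-score.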 Raw values are not corrected between plates. A reagent listed more than once was tested more than once; the source does not tell the runs apart.

The opening 2 entries, ahead of the listing:
target	p65 translocation robust z-score	nuclear/cytoplasmic p65 ratio, rep 1	nuclear/cytoplasmic p65 ratio, rep 2	low cell count flag	activity call
Zfp318	0.09	1.41	1.27	enough cells to score	inactive
Sacs	-0.6	1.33	1.33	enough cells to score	inactive

Main list, from the first entry:
target	p65 translocation robust z-score	nuclear/cytoplasmic p65 ratio, rep 1	nuclear/cytoplasmic p65 ratio, rep 2	low cell count flag	activity call
Zfp318	0.09	1.41	1.27	enough cells to score	inactive
Sacs	-0.6	1.33	1.33	enough cells to score	inactive
Or5p69	0.46	1.51	1.25	enough cells to score	inactive
Tbc1d22b	0.34	1.49	1.55	enough cells to score	inactive
Osbp2	-0.97	1.32	1.12	enough cells to score	inactive
Magea2	1.2	1.78	1.83	enough cells to score	inactive
Fhip1a	-0.64	1.35	1.45	enough cells to score	inactive
Panx1	-1.41	1.26	1.23	enough cells to score	inactive
Tff3	-0.46	1.36	1.1	enough cells to score	inactive
Zscan29	0.66	1.58	1.68	enough cells to score	inactive
Ankrd52	-0.42	1.58	1.36	enough cells to score	inactive
Dnase2b	-0.07	1.45	1.36	enough cells to score	inactive
Clip4	1.01	1.52	1.56	enough cells to score	inactive
Ldhal6b	-0.55	1.2	1.24	enough cells to score	inactive
Exoc6	-1.2	1.16	1.12	enough cells to score	inactive
Epb41	0.48	1.42	1.42	enough cells to score	inactive
Mdh2	0.38	1.84	1.54	enough cells to score	inactive
Sidt2	1	1.71	2.03	enough cells to score	inactive
Scel	0.02	1.62	1.42	enough cells to score	inactive
Aig1	0	1.63	1.66	enough cells to score	inactive
Nsd1	-0.26	1.46	1.34	enough cells to score	inactive
Slc25a20	0.14	1.53	1.84	enough cells to score	inactive
Dbndd2	0.94	1.65	1.74	enough cells to score	inactive
Rab6a	2.82	1.86	1.97	enough cells to score	inactive
Slc32a1	0.83	1.45	1.36	enough cells to score	inactive
Esr1	-0.47	1.34	1.36	enough cells to score	inactive
Ago3	0.92	1.61	1.46	enough cells to score	inactive
Pcdhgb4	0.42	1.56	1.24	enough cells to score	inactive
Mdfic	1.91	1.79	1.72	enough cells to score	inactive
Ptges3	0.23	1.55	1.56	enough cells to score	inactive
Stard3nl	0.81	1.56	1.3	enough cells to score	inactive
Defb1	0.4	1.45	1.78	enough cells to score	inactive
Vmn1r198		1.41	1.09	fewer than 50 cells per well; well left out of scoring	inactive
Krt16	-1.38	1.29	1.14	enough cells to score	inactive
Tas1r3	-0.57	1.47	1.46	enough cells to score	inactive
Prrg4	-0.01	1.38	1.54	enough cells to score	inactive
Dtd1	0.88	1.87	1.59	enough cells to score	inactive
Ldhd	0.46	1.58	1.53	enough cells to score	inactive
AI463229	1.22	1.6	1.71	enough cells to score	inactive
Fem1b	0.73	1.54	1.48	enough cells to score	inactive
Stxbp5l	0.4	1.36	1.58	enough cells to score	inactive
Kcnj9		1.56	1.59	fewer than 50 cells per well; well left out of scoring	inactive
Zfp454	0.82	1.58	1.29	enough cells to score	inactive
Dnmt3a		1.82	1.5	fewer than 50 cells per well; well left out of scoring	inactive
Pdpr	1.4	1.85	1.8	enough cells to score	inactive
Adra1b	-0.72	1.57	1.32	enough cells to score	inactive
Adra1b	-1.06	1.39	1.4	enough cells to score	inactive
Akt2	0.1	1.8	1.4	enough cells to score	inactive
Trmt61a	-0.97	1.36	1.34	enough cells to score	inactive
Fmo9	-0.29	1.26	1.22	enough cells to score	inactive
Pard3b	-1.3	1.45	1.38	enough cells to score	inactive
Tesmin	0.69	1.91	1.69	enough cells to score	inactive
Pou5f1	-0.85	1.46	1.3	enough cells to score	inactive
Mbtd1	-0.46	1.38	1.29	enough cells to score	inactive
Mapk12	0.76	1.73	1.47	enough cells to score	inactive
Dcaf4	2.98	1.72	1.66	enough cells to score	inactive
Polr2g	-1.21	1.27	1.25	enough cells to score	inactive
Slc12a9	-1.22	1.22	1.14	enough cells to score	inactive
Slc12a9		1.2	0.9	fewer than 50 cells per well; well left out of scoring	inactive
